Some of the results follow.
These molecules were tested on T1, CTL2-GFP (C. trachomatis L2/434/Bu, GFP-expressing). Settings: bulk GFP, single well; 28.5 h, 10 µM; inhibitor.
T1 construct: L2/434/Bu, GFP-expressing
Set-up: species or system HeLa; Intracellular C. trachomatis growth in HeLa cells, bulk GFP fluorescence relative to DMSO
In the case of `Cn1cc(-c2nccnc2OC(c2ccccc2)c2ccccc2)cn1` [CBK107073], the “% of control remaining” value is reported as 145.748%.
`Oc1cc(C(F)(F)F)nc(SCc2ccc(Cl)cc2)n1` [CBK002305] was tested, and the “% of control remaining” value was 101.396%.
With `CN1CCN(C(=O)c2ccccc2N(Cc2ccccc2)S(C)(=O)=O)CC1` [CBK266267] the “% of control remaining” value was 138.517%.
With `COC(=O)c1cn(C(=O)CCCN2C(=O)c3ccccc3C2=O)c2ccccc12` [CBK266799] the “% of control remaining” value was 163.109%.
`O=S(=O)(Nc1ccc2[nH]ccc2c1)c1ccc(Br)cc1F` [CBK153510] was tested, and the “% of control remaining” value was 93.5676%.
For `O=C(O)CCC(=O)NN1C(=O)c2ccccc2NC1c1ccc(F)cc1` (centres unmarked) [CBK286905], the “% of control remaining” value was 125.702%.
In the case of `O=[N+]([O-])c1ccc(Sc2nnc(COc3ccccc3)n2-c2ccccc2)nc1` [CBK265041], the “% of control remaining” value is reported as 68.4251%.
In the case of `O=C(O)C1CCCN1C(=O)Nc1ccccc1Cl` (centres unmarked) [CBK161381], the “% of control remaining” value is reported as 122.817%.
`Cc1ccc(-c2nnc(CNC(=O)Cc3ccc(F)cc3)o2)s1` [CBK284645] was tested, and the “% of control remaining” value was 143.055%.
In the case of `COc1ccc(Br)cc1/C=N/Nc1nc(NCc2ccccc2)nc(N2CCOCC2)n1` [CBK261232], the “% of control remaining” value is reported as 117.431%.
`COC(=O)c1c(NC(=O)C(Sc2ccccc2)c2ccccc2)sc2c1CCC(C(C)(C)C)C2` (centres unmarked) [CBK262603] was tested, and the “% of control remaining” value was 109.244%.
For `O=C(O)CCCCCNC(=S)Nc1cccc(Cl)c1` [CBK288446], the “% of control remaining” value was 116.403%.
In the case of `Cc1nn(C)c(Cl)c1S(=O)(=O)Nc1nn(Cc2ccc(C#N)cc2)c2ccccc12` [CBK048185], the “% of control remaining” value is reported as 96.8325%.
With `c1ccc(-c2n[nH]c(-c3ccncc3)c2-c2nc3ccccc3[nH]2)cc1` [CBK262180] the “% of control remaining” value was 117.742%.
With `CCN(CC)CCO/N=C1\CC2(CCCCC2)c2ccccc21` [CBK013325] the “% of control remaining” value was 138.383%.
With `CCN1CCN(C(=O)c2ccccc2N(Cc2ccccc2)S(=O)(=O)c2ccc(C)cc2)CC1` [CBK266827] the “% of control remaining” value was 124.783%.
With `CC(C)NC(=O)CN(C)Cc1nc(-c2cccc(C(F)(F)F)c2)no1` [CBK306036] the “% of control remaining” value was 149.317%.
In the case of `CCN(CC)c1ccc(SC)n1C` [CBK020929], the “% of control remaining” value is reported as 120.189%.
In the case of `CCn1cc(C2CN(S(=O)(=O)c3cccc(COC)c3)CCO2)cn1` (centres unmarked) [CBK304222], the “% of control remaining” value is reported as 88.1984%.
For `O=S(=O)(Nc1ccc(C(O)(C(F)(F)F)C(F)(F)F)cc1)c1ccc(Cl)c(Cl)c1` [CBK062102], the “% of control remaining” value was 125.789%.
`COC(=O)c1ccccc1OCCc1csc(NS(=O)(=O)c2cccc(Cl)c2C)n1` [CBK023735] was tested, and the “% of control remaining” value was 99.8081%.
For `COc1cccc(CC(=O)N2CCCC2c2nc3ccccc3[nH]2)c1` (centres unmarked) [CBK283665], the “% of control remaining” value was 116.075%.
With `CC1(C)[C@H](Cc2cc(CC3CCCCC3)on2)C[C@@H]1NC(=O)C1CCCC1` [CBK289256] the “% of control remaining” value was 119.524%.
With `Cc1ccn(CCNC(=O)c2cccc(N3CCCC3=O)c2)n1` [CBK282642] the “% of control remaining” value was 105.852%.
With `COC(=O)c1cn([C@H]2CO[C@H]3[C@@H]2OC[C@@H]3NC(=O)C2CCCCC2)nn1` [CBK289496] the “% of control remaining” value was 114.762%.
In the case of `CCn1ncnc1CN1CCN(Cc2ccccc2CO)CC1` [CBK306717], the “% of control remaining” value is reported as 125.681%.
In the case of `COc1ccc(-c2cc(C(=O)NCC(O)c3ccc4ccccc4c3)cnc2-c2ccccc2)cn1` (centres unmarked) [CBK037562], the “% of control remaining” value is reported as 88.75%.
With `Cc1ccc(C(C)(C)CC(C)NCc2cccc(C(F)(F)F)c2)o1` (centres unmarked) [CBK262872] the “% of control remaining” value was 113.886%.
`CC(C)c1nc(-c2cc3ccccc3[nH]c2=O)no1` [CBK287964] was tested, and the “% of control remaining” value was 104.283%.
For `COC(=O)/N=C1/Nc2ccccc2CN1CC(N)=O` [CBK007160], the “% of control remaining” value was 108.731%.
For `N=c1n(-c2ccccc2)c(O)c(C(c2ccncc2)c2c(O)n(-c3ccccc3)c(=N)n(-c3ccccc3)c2=O)c(=O)n1-c1ccccc1` (centres unmarked) [CBK261438], the “% of control remaining” value was 100%.
`COC(=O)c1ccc2c(=O)n(CCN3CCOCC3)c(=S)[nH]c2c1` [CBK268553] was tested, and the “% of control remaining” value was 89.0579%.
For `CC(Cc1cnccn1)NC(=O)Nc1cc(N2CCOCC2)ccc1Cl` (centres unmarked) [CBK306954], the “% of control remaining” value was 112.541%.
In the case of `CCCS(=O)(=O)n1c(=O)n(CCc2c[nH]c3ccccc23)c2ccccc21` [CBK106515], the “% of control remaining” value is reported as 160.182%.
For `CC(=O)Nc1ccc(-c2ccc(COC3CCN(C(=O)c4ccc(Cl)c(Cl)c4)CC3)cc2)cc1` [CBK149215], the “% of control remaining” value was 96.0396%.
With `COc1ccc(C(=O)NC(=S)Nc2ccc(N3CCN(C)CC3)cc2)cc1[N+](=O)[O-]` [CBK266098C] the “% of control remaining” value was 100%.
With `Cc1nc(Cl)c(C(=O)NCCc2ccc(S(=O)(=O)NC(=O)NC3CCCCC3)cc2)nc1C` [CBK011777] the “% of control remaining” value was 110.61%.
In the case of `O=C1CN(Cc2ccccc2)C(=O)N1CC1CCCCC1` [CBK162367], the “% of control remaining” value is reported as 122.937%.
